Laboratory results published in PubChem BioAssay AID1570 (National Center for Advancing Translational Sciences (NCATS), 2009).
This list was built around the results that the source calls inconclusive (neither active nor inactive); the mix of calls is not that of the screen. Potencies beside an inconclusive call are fits to weak or partial responses and may not hold up. Calls of active or inactive are those of the source. Calls come from the whole dose curve; as a rule, active = well fitted inhibition curve with a large enough effect; inconclusive = small, poorly fitted or top-dose-only effect, or effect the other way; inactive = flat fitted curve, though single readings scatter.

Sequences of proteins named here, by UniProt entry; tags and fusion partners are left off. A change or cut given only in a name is not applied to a line headed by its entry.
UniProt P10828: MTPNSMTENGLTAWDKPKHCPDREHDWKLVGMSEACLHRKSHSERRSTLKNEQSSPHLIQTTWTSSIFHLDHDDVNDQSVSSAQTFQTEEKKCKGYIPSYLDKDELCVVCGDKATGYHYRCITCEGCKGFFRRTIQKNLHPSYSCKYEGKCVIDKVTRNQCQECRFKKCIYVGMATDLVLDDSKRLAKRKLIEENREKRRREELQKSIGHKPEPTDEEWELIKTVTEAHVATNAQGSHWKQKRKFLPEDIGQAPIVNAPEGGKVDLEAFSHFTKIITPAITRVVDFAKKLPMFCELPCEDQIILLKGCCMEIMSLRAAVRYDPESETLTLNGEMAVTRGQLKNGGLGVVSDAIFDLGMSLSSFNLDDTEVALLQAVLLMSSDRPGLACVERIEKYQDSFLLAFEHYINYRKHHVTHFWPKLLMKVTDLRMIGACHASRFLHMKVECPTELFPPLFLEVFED

biological target: Thyroid hormone receptor beta (Homo sapiens) (UniProt P10828); assay: Concentration Response Confirmation Assay for Inhibitors of the Interaction of Thyroid Hormone Receptor and Steroid Receptor Coregulator 2, Fluorescein Fluoroprobe; details: TRbeta LBD / fluorescein-SRC2 peptide, fluorescence polarization, 5 h; series mostly up to 92.2 µM
Method in brief: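 Concentration-response qHTS: compound was added to 0.6 uM TRbeta LBD and 20 nM fluorescein-labeled SRC2 20-mer, with 1 uM T3 present, and incubated 5 h at ambient temperature. A fall in polarization (480/535 nm) marks inhibition, normalized to unbound and bound controls.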

Compound	Potency	activity, negative = inhibition
Cc1nc2ccccc2n2c(O)c(CC(=O)O)cc12	active: 8.91 µM	–
COc1ccc2nc3cccc(OC)c3nc2c1	inconclusive: 70.8 µM [inhibitor, partial curve, poor fit]	–
CCSc1ncc(Cl)c(C(=O)Nc2nc3ccc(OC)cc3s2)n1	inconclusive: 56.2 µM [activator, partial curve, poor fit]	–
COc1cc(C(c2c(C)[nH][nH]c2=O)c2c(C)[nH][nH]c2=O)ccc1OC(=O)c1ccccc1OC	inconclusive: 50.1 µM [inhibitor, full curve]	–
Cn1c(=O)[nH]c2nnc(-c3ccc(Cl)c(Cl)c3)nc2c1=O	inactive	–
O=C(O)C1C2C=CC(O2)C1C(=O)Nc1ccc(S(=O)(=O)N2CCc3ccccc32)cc1 (configuration not stated)	inconclusive: 15.8 µM [inhibitor, full curve]	–
Nc1cc(N)c(OCC(F)(F)F)cc1OCC(F)(F)F	inconclusive: 0.178 µM [inhibitor, full curve, poor fit]	–
CCCCOc1ccc(C(=O)CCN2CCOCC2)cc1	active: 3.55 µM	–
CCOC(=O)C(NC(=O)Nc1ccc(O)cc1)(c1ccccc1)C(F)(F)F (configuration not stated)	inconclusive: 31.6 µM [inhibitor, full curve, poor fit]	–
O=C1CNC(=S)N1c1nc(-c2ccccc2)cs1	inconclusive: 0.001 µM [activator, full curve, poor fit]	–
CCN(C(=O)C1CCCN(c2ncnc3onc(-c4ccc(F)cc4)c23)C1)c1ccccc1 (configuration not stated)	inactive	–
CC1=NN(c2ccc(F)cc2)C(=O)C1C(c1cccc(O)c1)c1c(C)[nH]n(-c2ccc(F)cc2)c1=O (configuration not stated)	inconclusive: 56.2 µM [inhibitor, partial curve, poor fit]	–
CCC(CNc1cc(OC)cc2cccnc12)NC1CCCCC1 (configuration not stated)	inconclusive: 31.6 µM [inhibitor, partial curve, poor fit]	–
COc1ccccc1Nc1cc2ccccc2c(=O)[nH]1	active: 35.5 µM	–
CCCCOc1ccc(C(=O)CCN2CCCCC2)cc1	active: 2.51 µM	–
COc1cc(/C=C(\C#N)C(=O)NCC2CCCO2)ccc1OCCC(C)C (configuration not stated)	inconclusive: 11.2 µM [inhibitor, full curve]	–
Nc1c(C(=O)NCc2ccco2)c2nc3ccccc3nc2n1CCc1ccccc1	inconclusive: 39.8 µM [activator, partial curve, poor fit]	–
CCCc1cc(=O)[nH]c(=S)[nH]1	inactive	–
Cc1cc(C)cc(OCC(=O)NCCc2nc3ccccc3[nH]2)c1	inactive	–
CN1N=C(C(C)(C)C)CC1=O	inconclusive: 0.0631 µM [activator, full curve, poor fit]	–
CCc1ccc2c(c1)c1nc(C)sc1n2CC	inactive	–
COc1ccc2c(c1)-c1nc(/N=C/c3c(O)ccc4ccccc34)sc1CC2	inconclusive: 15.8 µM [inhibitor, full curve]	–
COc1ccc2ccc3c(c2c1)N=CC1(O3)N(C)c2ccccc2C1(C)C (configuration not stated)	inconclusive: 35.5 µM [inhibitor, single point]	–
COc1cc(NCCCC(C)N)c2ncccc2c1 (configuration not stated)	inconclusive: 2.82 µM [inhibitor, partial curve]	–
O=C(O)[C@H]1CN(CCCP(=O)(O)O)CCN1	inconclusive: 112 µM [activator, partial curve, poor fit]	–
C/C(=C\C(=O)c1ccccc1)Nc1ccc(O)cc1	–	inactive: -2.06% [at 11.6 µM]
CCCc1nc2c(=O)n(C)c(=O)nc-2n(C)n1	inconclusive: 0.141 µM [inhibitor, full curve]	–

Some of these compounds in order of count of non-hydrogen atoms, low to high:
Compound	Potency	activity, negative = inhibition
COc1cc(NCCCC(C)N)c2ncccc2c1 (configuration not stated)	inconclusive: 2.82 µM [inhibitor, partial curve]	–
CCOC(=O)C(NC(=O)Nc1ccc(O)cc1)(c1ccccc1)C(F)(F)F (configuration not stated)	inconclusive: 31.6 µM [inhibitor, full curve, poor fit]	–
Nc1c(C(=O)NCc2ccco2)c2nc3ccccc3nc2n1CCc1ccccc1	inconclusive: 39.8 µM [activator, partial curve, poor fit]	–
